The values below come from the supplement of paper PMC12542422.

Structures can show the parent of a compound that is named as a salt. ± gives the standard deviation of the averaged measurements. This is one part of the list. These are raw signals, not scaled to a control.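 HeLa cells imaged for ribosome-assembly readouts (ENP1 staining with or without export block, or inducible tagged ribosomal protein reporters); machine learning classified each cell's signal location against solvent (DMSO) controls. Hits exceeded the DMSO false-positive mean by five standard deviations, then were visually confirmed; three biological replicates.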

In this test the test system is HeLa RPL29-GFP reporter. The test can be described thus: fraction of reporter-positive cells with nuclear (nucleolar or nucleolar/nucleoplasmic) RPL29-GFP (MainHitrate); higher = more cells with nucleolar/nuclear readout signal (for ENP1 -LMB: less RNAPI inhibition; for +LMB ENP1 and RP reporters: stronger nuclear/nucleolar retention, i.e. ribosome biogenesis defect). The following applies: concentration: 1 µM; treatment time: 6 h.
With `COc1ccc2[nH]c([S@@+]([O-])Cc3ncc(C)c(OC)c3C)nc2c1` [Esomeprazole sodium (Nexium)], the “fraction of reporter-positive cells with nuclear” value (shortened to “fraction”) came to 0.244 ± 0.11.

Consider `Nc1ncn([C@H]2C[C@H](O)[C@@H](CO)O2)c(=O)n1` [Decitabine], for which the “fraction” value is 0.221 ± 0.089.

With `CCCCN(CCCC)CCCOC(=O)c1ccc(N)cc1` [Butacaine], the “fraction” value stood at 0.308 ± 0.26.

Turning to `CN/C(=N\CCSCc1nc[nH]c1C)NC#N` [Cimetidine (Tagamet)], the “fraction” value was determined as 0.226 ± 0.078.

For `CCCCCCCCCCC[C@@H](C[C@@H]1OC(=O)[C@H]1CCCCCC)OC(=O)[C@H](CC(C)C)NC=O` [Orlistat (Alli, Xenical)], the “fraction” value is 0.211 ± 0.074.

As to `NCC[C@H](O)C(=O)N[C@@H]1C[C@H](N)[C@@H](O[C@H]2O[C@H](CN)[C@@H](O)[C@H](O)[C@H]2O)[C@H](O)[C@H]1O[C@H]1O[C@H](CO)[C@@H](O)[C@H](N)[C@H]1O` [Amikacin hydrate], the “fraction” value is 0.219 ± 0.085.

Turning to `CC1(C)O[C@@H]2C[C@H]3[C@@H]4CCC5=CC(=O)C=C[C@]5(C)[C@@]4(F)[C@@H](O)C[C@]3(C)[C@]2(C(=O)CO)O1` [Triamcinolone Acetonide], the “fraction” value stood at 0.236 ± 0.062.

As to `Cc1ccc(C(=O)C(C)CN2CCCCC2)cc1` (stereo not given) [Tolperisone HCl], the “fraction” value came out at 0.228 ± 0.051.

As to `CCCOc1ccc2[nH]c(NC(=O)OC)nc2c1` [Oxibendazole], the “fraction” value was 0.274 ± 0.084.

With `CCN(CC)C(=S)SSC(=S)N(CC)CC` [Disulfiram (Antabuse)], the “fraction” value was found to be 0.348 ± 0.12.

On to `CN(C)c1cc(NC(=O)CNC(C)(C)C)c(O)c2c1C[C@H]1C[C@H]3[C@H](N(C)C)C(O)=C(C(N)=O)C(=O)[C@@]3(O)C(O)=C1C2=O` [Tigecycline], for which the “fraction” value was 0.198 ± 0.071.

On to `CN1C(C(=O)Nc2ccccn2)=C(O)c2sc(Cl)cc2S1(=O)=O` [Lornoxicam (Xefo)], for which the “fraction” value is 0.234 ± 0.094.

As for `N[C@H](Cc1ccccc1)C(=O)O` [D-Phenylalanine], the “fraction” value was 0.246 ± 0.059.

With `CC(C(=O)O)c1ccc(-c2ccccc2)c(F)c1` (stereo not given) [Flurbiprofen (Ansaid)], the “fraction” value amounted to 0.188 ± 0.035.

As to `Nc1nc2c(ncn2COCCO)c(=O)[nH]1` [Acyclovir (Aciclovir)], the “fraction” value is 0.266 ± 0.081.

For the molecule `Cc1ccccc1C(=O)Nc1ccc(C(=O)N2CCCC(O)c3cc(Cl)ccc32)c(C)c1` (stereo not given), the “fraction” value was determined as 0.21 ± 0.077.

In the case of `N[C@@H]1CN(c2c(F)cc3c(=O)c(C(=O)O)cn([C@@H]4C[C@@H]4F)c3c2Cl)CC12CC2` [Sitafloxacin hydrate], the “fraction” value is 0.227 ± 0.071.

Turning to `Cc1cc2c(cc1S(N)(=O)=O)S(=O)(=O)CCC2` [Meticrane], the “fraction” value is 0.287 ± 0.26.

Take `CC(=O)O[C@H]1C[C@@H]2CC[C@@H]3[C@H](CC[C@@]4(C)[C@H]3C[C@H]([N+]3(C)CCCCC3)[C@@H]4OC(C)=O)[C@@]2(C)C[C@@H]1N1CCCCC1` [Vecuronium Bromide]: the “fraction” value was determined as 0.21 ± 0.086.

Take `CC(C)[N+]1(C)[C@@H]2CC[C@H]1C[C@@H](OC(=O)C(CO)c1ccccc1)C2` (stereo not given in full) [Ipratropium bromide]: the “fraction” value was 0.21 ± 0.046.

On to `CN(C)CCC(c1ccc(Br)cc1)c1ccccn1` (stereo not given) [Brompheniramine], for which the “fraction” value is 0.226 ± 0.044.

With `CC(C)NCC(O)c1ccc(O)c(O)c1` (stereo not given) [Isoprenaline hydrochloride], the “fraction” value was determined as 0.247 ± 0.086.

Consider `OC[C@@H](O)[C@@H](O)[C@H](O)[C@H](O)CO` [D-Mannitol (Osmitrol)], for which the “fraction” value came out at 0.275 ± 0.095.

In the case of `CN(C)CCN(Cc1cccs1)c1ccccn1` [Methapyrilene HCl], the “fraction” value was 0.278 ± 0.21.

`COc1ccc([C@H]2CNC(=O)C2)cc1OC1CCCC1` [S-(+)-Rolipram]: the “fraction” value amounted to 0.227 ± 0.089.

As for `C#C[C@]1(O)CC[C@H]2[C@@H]3CCc4cc(O)ccc4[C@H]3CC[C@@]21C` [Ethinyl Estradiol], the “fraction” value turned out to be 0.209 ± 0.061.

As to `CO[C@H]1C[C@@H]2CC[C@@H](C)[C@@](O)(O2)C(=O)C(=O)N2CCCC[C@H]2C(=O)O[C@H]([C@H](C)C[C@@H]2CC[C@@H](O)[C@H](OC)C2)CC(=O)[C@H](C)/C=C(\C)[C@@H](O)[C@@H](OC)C(=O)[C@H](C)C[C@H](C)/C=C/C=C/C=C/1C` [Rapamycin (Sirolimus)], the “fraction” value came to 0.299 ± 0.12.

For `COC(=O)[C@H](c1ccccc1Cl)N1CCc2sccc2C1` [Clopidogrel (Plavix)], the “fraction” value turned out to be 0.209 ± 0.074.

In the case of `C[C@H]1C[C@H]2[C@@H]3CCC4=CC(=O)C=C[C@]4(C)[C@@]3(F)[C@@H](O)C[C@]2(C)[C@@]1(O)C(=O)CO` [Betamethasone (Celestone)], the “fraction” value came out at 0.2 ± 0.023.

In the case of `CN(C)c1ccc(C(=C2C=CC(=[N+](C)C)C=C2)c2ccc(N(C)C)cc2)cc1` [Crystal violet], the “fraction” value was 0.327 ± 0.13.
